Experimental data taken from patent publication US10138235B2, “Pyrazolopyridine derivatives, preparation process therefor and therapeutic use thereof” (SANOFI, priority 2011, dated 2018).
Some results were stated once for a whole list of compounds, not compound by compound.

Tested on: HUVEC cells stimulated with FGF-2
Experiment: In vitro angiogenesis of HUVEC cells induced with FGF-2 (length of pseudotubules)
Type: cell-based, human
Conditions: at a dose of less than or equal to 300 nM
Protocol: To do this, matrices composed of matrigel (growth factor reduced matrigel, Becton Dickinson 356230) and of collagen (rat tail collagen type I, Becton Dickinson 354236) are deposited in an amount of 160 μl into each chamberslide well (Biocoat Cellware collagen, Type I, 8-well culturesides: Becton dickinson 354630), or 60 μl per well of 96-plate wells (Biocoat collagenl cellware, Becton Dickinson 354407). The matrix is prepared by mixing ⅓ of matrigel, 1 mg/ml final of collagen, 0.1N NaOH (0.026× the volume of collagen in μl), PBS 1×, and the volume is then adjusted with water. The gels are kept for 1 hour at 37° C. to allow their polymerization. Next, the human venous endothelial cells (HUVEC ref.: C-12200—Promocell) were seeded at 15×10^3 or 6×10^3 cells/well in 400 or 120 μl (for the 8-well or 96-well plates, respectively) of EBM medium (Clonetics C3121)+2% FBS+hEGF 10 μg/ml. They are stimulated with 1 or 3 ng/ml of FGF-2 (R&D system, 133-FB-025; Invitrogen, PHG0026) for 24 hours at 37° C. in the presence of 5% CO2. After 24 hours, the length of the network of microtubules formed is measured by means of the computer-assisted image analysis system (Imagenia Biocom, Courtaboeuf, France) and the total length of the pseudotubules in each well is determined. The mean total length of the microcapillary network is calculated in μm for each condition corresponding to the mean on 6 replicates
Stimulation with FGF-2 allows induction of the formation of new tubules. An FGF-R antagonist is considered as being active in this test if it is capable of partially inhibiting this angiogenesis at a dose of less than or equal to 300 nM.
In this experiment, the molecules are evaluated from 0.03 nM to 300 nM depending on the molecule with regard to induction of the angiogenesis of human HUVEC cells with FGF-2. Compounds 38 (Example 2), 46 (Example 1), 53 (Example 3), 56 (Example 4), 57 (Example 6), 61 (Example 5), 75 (Example 12), 83 (Example 13), 88 (Example 8), 91 (Example 15), 93 (Example 14), 106 (Example 11), 108 (Example 7) and 114 (Example 9) are active since they have inhibitory activity on the formation of pseudotubules of greater than or equal to 20% at a dose of less than or equal to 300 nM (FIG. 1). In the following table, A=active for a concentration<1 nM, B=active at a concentration of 1 nM, C=active at a concentration of 3 nM, D=active at a concentration of 10 nM, E=active at a concentration of 30 nM, and F=active at a concentration of 300 nM.

Row | SMILES | inhibitory activity on the formation of pseudotubules
1 | NC(=O)c1cc(-c2ccc(F)c(C(=O)O)c2)nc2[nH]nc(-c3ccccc3)c12 [Compound 46, 5-(4-Carbamoyl-3-phenyl-1H-pyrazolo[3,4-b]pyridin-6-yl)-2-fluorobenzoic acid] | greater than or equal to 20%
2 | Cn1nc2nc(-c3ccc(N)c(C#N)c3)cc(C(F)(F)F)c2c1-c1ccccc1 [Compound 108, 2-Amino-5-[2-methyl-3-phenyl-4-(trifluoromethyl)-2H-pyrazolo[3,4-b]pyridin-6-yl]benzonitrile] | greater than or equal to 20%
3 | N#Cc1cc(-c2cc(C(F)F)c3c(-c4cccnc4)n[nH]c3n2)ccc1N [Compound 91, 2-Amino-5-[4-(difluoromethyl)-3-(pyridin-3-yl)-1H-pyrazolo[3,4-b]pyridin-6-yl]benzonitrile] | greater than or equal to 20%
4 | O=C(O)c1cc(-c2cc(C(F)F)c3c(-c4ccccc4)n[nH]c3n2)ccc1F [Compound 53, 5-[4-(Difluoromethyl)-3-phenyl-1H-pyrazolo[3,4-b]pyridin-6-yl)-2-fluorobenzoic acid] | greater than or equal to 20%
5 | N#Cc1cc(-c2cc(C(F)F)c3cn[nH]c3n2)ccc1N [Compound 75, 2-Amino-5-[4-(difluoromethyl)-1H-pyrazolo[3,4-b]pyridin-6-yl]benzonitrile] | greater than or equal to 20%
6 | Cn1cc2c(C(F)F)cc(-c3ccc(N)c(C#N)c3)nc2n1 [Compound 106, 2-Amino-5-[4-(difluoromethyl)-2-methyl-2H-pyrazolo[3,4-b]pyridin-6-yl]benzonitrile] | greater than or equal to 20%
7 | Cn1nc(-c2ccccc2)c2c(C(F)(F)F)cc(-c3ccc(N)c(C#N)c3)nc21 [Compound 57, 2-Amino-5-[1-methyl-3-phenyl-4-(trifluoromethyl)-1H-pyrazolo[3,4-b]pyridin-6-yl]benzonitrile] | greater than or equal to 20%
8 | CN(C)CCn1ncc2c(C(F)F)cc(-c3ccc(N)c(C#N)c3)nc21 [Compound 83] | greater than or equal to 20%
9 | Cn1cc2c(C(F)(F)F)cc(-c3ccc(N)c(C#N)c3)nc2n1 [Compound 114, 2-Amino-5-[2-methyl-4-(trifluoromethyl)-2H-pyrazolo[3,4-b]pyridin-6-yl]benzonitrile] | greater than or equal to 20%
10 | O=C(O)c1cc(-c2cc(C(F)(F)F)c3c(-c4ccccc4)n[nH]c3n2)ccc1F [Compound 56, 2-Fluoro-5-[3-phenyl-4-(trifluoromethyl)-1H-pyrazolo[3,4-b]pyridin-6-yl]benzoic acid] | greater than or equal to 20%
11 | COc1cc(-c2cc(C(=O)O)c3cn[nH]c3n2)ccc1N [Compound 38, 6-(4-Amino-3-methoxyphenyl)-1H-pyrazolo[3,4-b]pyridine-4-carboxylic acid] | greater than or equal to 20%
12 | Cn1ncc2c(C(F)(F)F)cc(-c3ccc(N)c(C#N)c3)nc21 [Compound 88, 2-Amino-5-[1-methyl-4-(trifluoromethyl)-1H-pyrazolo[3,4-b]pyridin-6-yl]benzonitrile] | greater than or equal to 20%
13 | CN(C)c1ccc(-c2cc(C(F)(F)F)c3c(-c4ccccc4)n[nH]c3n2)cc1 [Compound 61, N,N-Dimethyl-4-[3-phenyl-4-(trifluoromethyl)-1H-pyrazolo[3,4-b]pyridin-6-yl]aniline] | greater than or equal to 20%
